For this assay, the target named is M. tuberculosis GlnH, predicted soluble domain (M. tuberculosis H37Rv) (UniProt P96257). Description: SEC; […] (16/60), 20 mM Tris-acetate (pH 7.5)-20 mM NaCl; […]; both purified.

No constants are given. Whether binding was seen depends on the method and setting.

In the case of “M. tuberculosis GlnH, predicted soluble domain (from UniProt P96257 27-328) (domain or fragment)”, the binding result was “no binding”.

These data come from PMC6069109, “An Aspartate-Specific Solute-Binding Protein Regulates Protein Kinase G Activity To Control Glutamate Metabolism in Mycobacteria” (mBio, 2018).
